Measured values: PMC9018712
These are yes or no findings as the source states them, for the method shown. In cells and extracts the contact can be indirect. Here binding means that the protein was enriched with, or labelled near, the bait; the list need not be complete. Sequences can lack the tags named with a protein.

Target: T1, glutathione S-transferase (GST)-tagged GRHL3 (UniProt Q5FWH3)
T1 sequence: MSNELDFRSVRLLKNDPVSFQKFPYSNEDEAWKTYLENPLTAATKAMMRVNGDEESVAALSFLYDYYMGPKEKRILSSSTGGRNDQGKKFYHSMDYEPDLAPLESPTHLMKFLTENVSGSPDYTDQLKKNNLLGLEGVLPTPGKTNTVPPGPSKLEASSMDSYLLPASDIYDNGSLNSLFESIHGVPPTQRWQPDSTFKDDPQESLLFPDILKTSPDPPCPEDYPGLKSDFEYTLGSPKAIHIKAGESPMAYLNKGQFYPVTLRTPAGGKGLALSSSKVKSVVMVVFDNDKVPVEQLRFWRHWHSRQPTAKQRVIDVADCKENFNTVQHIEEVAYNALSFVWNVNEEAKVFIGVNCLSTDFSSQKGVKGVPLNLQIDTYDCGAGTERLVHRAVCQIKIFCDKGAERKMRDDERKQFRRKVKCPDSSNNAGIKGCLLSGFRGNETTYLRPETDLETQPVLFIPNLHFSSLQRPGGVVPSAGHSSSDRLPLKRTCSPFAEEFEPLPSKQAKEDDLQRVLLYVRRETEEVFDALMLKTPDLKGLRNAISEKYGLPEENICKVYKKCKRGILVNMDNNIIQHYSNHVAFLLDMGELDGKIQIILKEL
Experiment: affinity purification with mass spectrometry; GST-tagged GRHL3 (GST-tag alone as control) expressed in MCF7 cells; specific protein bands subjected to mass spectrometry

B1: ubiquitin-specific protease 39 (USP39), endogenous in MCF7 cells (protein, UniProt Q53GS9 1-565)
chain: MSGRSKRESRGSTRGKRESESRGSSGRVKRERDREREPEAASSRGSPVRVKREFEPASAREAPASVVPFVRVKREREVDEDSEPEREVRAKNGRVDSEDRRSRHCPYLDTINRSVLDFDFEKLCSISLSHINAYACLVCGKYFQGRGLKSHAYIHSVQFSHHVFLNLHTLKFYCLPDNYEIIDSSLEDITYVLKPTFTKQQIANLDKQAKLSRAYDGTTYLPGIVGLNNIKANDYANAVLQALSNVPPLRNYFLEEDNYKNIKRPPGDIMFLLVQRFGELMRKLWNPRNFKAHVSPHEMLQAVVLCSKKTFQITKQGDGVDFLSWFLNALHSALGGTKKKKKTIVTDVFQGSMRIFTKKLPHPDLPAEEKEQLLHNDEYQETMVESTFMYLTLDLPTAPLYKDEKEQLIIPQVPLFNILAKFNGITEKEYKTYKENFLKRFQLTKLPPYLIFCIKRFTKNNFFVEKNPTIVNFPITNVDLREYLSEEVQAVHKNTTYDLIANIVHDGKPSEGSYRIHVLHHGTGKWYELQDLQVTDILPQMITLSEAYIQIWKRRDNDETNQQGA
- binding: binds
